Assay results: article PMC7616247
These are yes or no findings as the source states them, for the method shown. In cells and extracts the contact can be indirect. Here binding means that the protein was enriched with, or labelled near, the bait; the list need not be complete.

Protein sequences, listed by entry. Tags and fused reporters are not part of them.
UniProt Q63943: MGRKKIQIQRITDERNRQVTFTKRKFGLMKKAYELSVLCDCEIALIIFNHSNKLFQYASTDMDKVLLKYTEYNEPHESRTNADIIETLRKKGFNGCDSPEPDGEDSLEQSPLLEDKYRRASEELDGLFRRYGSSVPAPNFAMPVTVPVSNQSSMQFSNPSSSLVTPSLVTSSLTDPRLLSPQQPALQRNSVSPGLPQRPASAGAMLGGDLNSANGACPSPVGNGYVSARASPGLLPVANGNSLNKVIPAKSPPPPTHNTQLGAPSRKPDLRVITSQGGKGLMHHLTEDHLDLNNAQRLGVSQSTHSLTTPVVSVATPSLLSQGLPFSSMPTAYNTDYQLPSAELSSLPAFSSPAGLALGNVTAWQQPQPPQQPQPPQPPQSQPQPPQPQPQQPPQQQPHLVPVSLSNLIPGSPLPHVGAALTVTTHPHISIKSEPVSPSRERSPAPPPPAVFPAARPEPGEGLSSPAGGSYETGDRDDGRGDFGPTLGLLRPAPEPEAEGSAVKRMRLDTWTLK
UniProt Q60929: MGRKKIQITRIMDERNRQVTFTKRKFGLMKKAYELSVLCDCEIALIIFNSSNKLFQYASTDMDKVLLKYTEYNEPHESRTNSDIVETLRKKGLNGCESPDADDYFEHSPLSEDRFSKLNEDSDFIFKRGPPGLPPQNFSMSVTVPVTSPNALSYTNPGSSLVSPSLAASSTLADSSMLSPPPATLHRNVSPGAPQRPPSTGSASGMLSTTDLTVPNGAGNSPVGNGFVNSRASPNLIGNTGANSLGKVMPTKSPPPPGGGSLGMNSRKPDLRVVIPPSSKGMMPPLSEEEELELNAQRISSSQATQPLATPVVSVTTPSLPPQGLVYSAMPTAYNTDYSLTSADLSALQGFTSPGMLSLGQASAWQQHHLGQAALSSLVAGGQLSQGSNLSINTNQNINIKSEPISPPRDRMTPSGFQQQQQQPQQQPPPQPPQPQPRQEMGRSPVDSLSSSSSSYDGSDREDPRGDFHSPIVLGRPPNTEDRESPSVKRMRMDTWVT

Target: myocyte-specific enhancer factor 2d (Mef2d) (mouse (endogenous in the ILC2 Bl6 cell line)) (UniProt Q63943)
Assay: affinity purification with mass spectrometry; anti-Mef2d antibody on protein A/G Dynabeads, overnight at 4 C; cytoplasmic lysate (50 mM Tris pH 8.0, 0.1% NP40, 10% glycerol, 2 mM EDTA) and nuclear extract of ILC2s (ILC2 Bl6 cell line), before and after LTC4 stimulation; LC-MS/MS (Orbitrap Velos), Mascot and Scaffold

Molecule: Mef2a (from UniProt Q60929 1-498)
- binding: binds

B1: NFAT1 (encoded by Nfatc2) (protein, UniProt Q60591 1-927)
chain: MDVPEPQPDPDGGDGPGHEPGGSPQDELDFSILFDYDYLNPIEEEPIAHKAISSPSGLAYPDDVLDYGLKPCNPLASLSGEPPGRFGEPDSIGFQNFLSPVKPAGASGPSPRIEITPSHELMQAGGALRGRDAGLSPEQPALALAGVAASPRFTLPVPGYEGYREPLCLSPASSGSSASFISDTFSPYTSPCVSPNNAGPDDLCPQFQNIPAHYSPRTSPIMSPRTSLAEDSCLGRHSPVPRPASRSSSPGAKRRHSCAEALVAPLPAASPQRSRSPSPQPSPHVALQDDSIPAGYPPTAGSAVLMDALNTLATDSPCGIPSKIWKTSPDPTPVSTAPSKAGLARHIYPTVEFLGPCEQEERRNSAPESILLVPPTWPKQLVPAIPICSIPVTASLPPLEWPLSNQSGSYELRIEVQPKPHHRAHYETEGSRGAVKAPTGGHPVVQLHGYMENKPLGLQIFIGTADERILKPHAFYQVHRITGKTVTTTSYEKIVGNTKVLEIPLEPKNNMRATIDCAGILKLRNADIELRKGETDIGRKNTRVRLVFRVHVPEPSGRIVSLQAASNPIECSQRSAHELPMVERQDMDSCLVYGGQQMILTGQNFTAESKVVFMEKTTDGQQIWEMEATVDKDKSQPNMLFVEIPEYRNKHIRVPVKVNFYVINGKRKRSQPQHFTYHPVPAIKTEPSDEYEPSLICSPAHGGLGSQPYYPQHPMLAESPSCLVATMAPCQQFRSGLSSPDARYQQQSPAAALYQRSKSLSPGLLGYQQPSLLAAPLGLADAHRSVLVHAGSQGQGQGSTLPHTSSASQQASPVIHYSPTNQQLRGGGHQEFQHIMYCENFGPSSARPGPPPINQGQRLSPGAYPTVIQQQTAPSQRAAKNGPSDQKEALPTGVTVKQEQNLDQTYLDDVNEIIRKEFSGPPSRNQT
- binding: binds
